From patent US20090036353 (published 2009)

Experiment: peptide synthesis

“B29K(N(eps)-N-tert-butyloxycarbonyl-O-tert-butyl-serinyl) desB30 insulin” showed a step yield (late stage modification step) of 80%.
With “B29K(N(eps)-{3-[2-(1,3-Bis[2-(2-{2-[2-(2-methoxyethoxy)ethoxy]acetylamino}ethoxy)ethoxy]-propan-2-yloxy)acetylamino]propanoyl}) desB30 Human Insulin” the “final HPLC purity” value (conjugation step, UV 214 nm) was 100.0% pure.
